## Screening data, single-dose tests

Protein sequences, listed by entry. Tags and fused reporters are not part of them. Residues count along the entry.
UniProt Q4DA54, 1-478: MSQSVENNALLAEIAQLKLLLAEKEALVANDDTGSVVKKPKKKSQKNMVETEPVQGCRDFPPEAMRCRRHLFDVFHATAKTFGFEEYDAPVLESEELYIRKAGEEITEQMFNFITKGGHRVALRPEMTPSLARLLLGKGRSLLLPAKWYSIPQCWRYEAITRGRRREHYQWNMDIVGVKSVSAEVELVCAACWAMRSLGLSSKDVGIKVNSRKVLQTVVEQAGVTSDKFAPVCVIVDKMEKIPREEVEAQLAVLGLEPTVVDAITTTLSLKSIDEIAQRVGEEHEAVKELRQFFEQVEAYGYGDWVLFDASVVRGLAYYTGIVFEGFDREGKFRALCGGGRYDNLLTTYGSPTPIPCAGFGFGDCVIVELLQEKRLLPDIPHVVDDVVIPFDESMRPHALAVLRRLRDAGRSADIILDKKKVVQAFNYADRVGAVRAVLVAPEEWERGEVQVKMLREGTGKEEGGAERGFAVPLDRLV

Source: ChEMBL document CHEMBL3988442, “University of Dundee, Small-Polar-MMV Screening Library” (2021).

Each number is a percent effect as filed.
The controls that fix the scale are not given in the record; negative values are as filed.
The compounds are a random part of those screened.

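Histidine-tRNA ligase, Trypanosoma cruzi CL Brener (UniProt Q4DA54). Enzyme assay of histidyl-tRNA synthetase; the read-out is not stated. Concentration: 30 µM. Direction is inferred from retests: higher values go with stronger inhibition. Of about 69,000 compounds tested this way, about 31 (0.045%) reached 50% or more in at least one test.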

structure	effect
CS(=O)(=O)N1CCCn2nc(CNc3ncccn3)cc2C1	5.102%
COCCN(C)CC1CCCN1S(=O)(=O)Cc1ccccc1F (stereo not given)	3.03%
Cc1ccc(C(=O)N2CCc3ncnc(-c4cnn(C)c4)c3CC2)o1	-3.738%
CC(O)CCN(C)S(=O)(=O)Cc1ccc(Br)cc1 (stereo not given)	7.843%
COc1ccc(CN2CCN(C(C)c3nc(C4CC4)no3)CC2)cc1 (stereo not given)	0%
CNc1nc(N2CCC3(CCCNC3=O)C2)nc2c1CCC2 (stereo not given)	4.372%
CCCNS(=O)(=O)Cc1ccc(Br)cc1	0%
CN1CCS(=O)(=O)[C@@H]2CCN(C(=O)CC(C)(C)C)CC[C@@H]21	6.25%
Cc1nc(CNC(=O)CCN2CCN(c3ccccn3)CC2)oc1C	-4.04%
Cn1c(CN2CCCC(c3noc(C4CC4)n3)C2)cc(=O)n(C)c1=O (stereo not given)	2.825%
CC(C)(C)OC(=O)NCC1CCCCN1Cc1ccccn1 (stereo not given)	0%
c1cnc(N2CCO[C@H]3[C@H](OCC4CC4)CC[C@@H]32)nc1	4.42%
CC1=N[C@@]2(CC[C@@H]3CNC[C@@H]32)C(=O)N1CC(C)C	2.762%
CN(CCCNC(=O)c1ccccc1OCC(N)=O)CC(F)(F)F	7.027%
Cc1cc(C)nc(C2CCN(c3ccncn3)C2)n1 (stereo not given)	2.632%
CSc1ccc(CN(C(=O)c2cc(C)[nH]c(=O)c2)C2CC2)cc1	0.5587%
Cc1cc(C)c(CNCC(O)c2ccc(F)c(F)c2)c(C)c1 (stereo not given)	5.172%
Cc1cnc2c(c1NCc1ccc3c(c1)OCO3)c(=O)n(C)c(=O)n2C	-13.25%
COc1ccc(CCn2cnc(C#N)n2)cc1	4.972%
CN(C(=O)c1ccccc1F)[C@@H]1CC[C@@H](O)[C@@H]1O	6.154%
O=C(CC1C=CCC1)Nc1ncn(CC(=O)N2CCCCCC2)n1 (stereo not given)	0.5882%
COCCN(CCN(C)C)C(=O)NC1CC1	7.143%
CCc1cc(CNC(=O)N2CCN(c3nc(C)c(C)s3)CC2)on1	4.933%
CN1CCN(C)C(CNC(=O)N(C)Cc2ccccc2Cl)C1 (stereo not given)	9.845%
COc1ccc(C(=O)N2C[C@@H](CN3CCCCC3)[C@@H](CO)C2)cc1Cl	7.821%
COc1ccc(C(C)NC(=O)NCCc2ccc(C)nc2)c(OC)c1 (stereo not given)	-1.316%
Cc1cnn(CC2CCCCN2CCC(=O)Nc2cc(C)on2)c1 (stereo not given)	1.88%
Cn1cnnc1S(=O)(=O)C1CCN(C(=O)c2ccco2)CC1	5.556%
CCC1CN(C(=O)c2cnc(-c3ccccc3)s2)CCO1 (stereo not given)	1.111%
COc1ccc(CCC(=O)Nc2cccnc2N2CCCC2)cc1Br	1.504%
COCC1CC2(CCN(c3cccc(C)n3)CC2)CN1C(C)C (stereo not given)	8.543%
CC[C@H](CO)NC(=O)c1coc(COc2ccccc2F)n1	4.04%
CC(C(=O)NCc1ccnc(OCC(F)(F)F)c1)n1cncn1 (stereo not given)	5.911%
O=C([C@@H]1C[C@@H]2CCN(Cc3ccc4c(c3)OCO4)C[C@@H]2O1)N1CCCC1	7.438%
Fc1ccc(CN2CCO[C@H]3[C@H](Oc4ccccn4)CC[C@@H]32)cc1	1.961%
O=C(Cn1cnc2sccc2c1=O)NCCc1nnc2ccccn12	2.484%
O=C(CCCN1CCCCC1)N1CCN(C(=O)c2nc[nH]n2)CC1	3.879%
O=C(Cc1ccccn1)NCC1OCCc2cn(CC3CC3)nc21 (stereo not given)	2.151%
CN1CCN(C(=O)CCC(=O)c2cccs2)Cc2ccccc21	6.145%
CNc1cncc(C2CCCN2C(=O)CCn2ccnc2)n1 (stereo not given)	2.682%
Cc1cc(C)n(-c2ccc(N3CCC(O)CC3)nc2)n1	2.128%
Cc1cc(NCc2cc3n(n2)CCCN(C(=O)C2CCC2)C3)nc(N)n1	7.035%
CC(C)CCn1c(=O)n(CCn2cccc2)c2cc(C(=O)O)cnc21	7.216%
CO[C@@H]1CN(c2ccccc2)S(=O)(=O)[C@@]12CCN(C(=O)N(C)C)C2	-2.247%
Cc1nc(C)c(S(=O)(=O)NC(=O)c2ccoc2)s1	0.9901%
O=C1c2cnc(N3CCC(O)CC3)nc2CN1Cc1cccc(F)c1	-32.46%
Cc1nc2c(c(N(C)C)n1)CCN(C(=O)c1sccc1S(N)(=O)=O)C2	4.04%
C1CN(c2nc(C3CC3)ns2)CCO1	2.062%
Cn1cc(CCNC(=O)NC2CCN(Cc3ccccn3)CC2)cn1	4.035%
COc1ccccc1C(=O)N(C)Cc1ncc(C)c(OC)c1C	4.906%
CCCc1ccc(C(=O)N2Cc3c(Cn4ccnc4)nn(C)c3C2)cc1	5.102%
Cc1cc(CNc2ccc(-c3nc(C4CC4)no3)cn2)no1	5.806%
N#Cc1cccc(N2CCCC3(CCC(=O)N(C4CCCC4)C3)C2)n1 (stereo not given)	6%
c1nc2c(c(C3CC3)n1)CCN(Cc1ccc3c(c1)OCO3)CC2	3.306%
Cc1cccc(C)c1Nc1noc2c1CN(C(=O)c1ccn(C)n1)CC2	0%
CCn1cc(C2CCN(Cc3ccnc(N(C)C)c3)CC2)cn1	4.972%
N#Cc1cccnc1N1CCN(S(=O)(=O)NCc2ccccc2)CC1	3.659%
CC(NCc1cccc(NC(=O)C2CCCCC2)c1)c1cnn(C)c1 (stereo not given)	0%
Cc1nccc(-c2ccccc2)c1C(=O)N1CCC2(CCCO2)CC1	6.077%
Cc1[nH]nc(CCC(=O)N2CCc3c(nc[nH]c3=O)C2)c1C	6.468%
Cc1ccc(CCC(=O)N(C)CCN2CCOCC2)c(C)c1	3.261%
CCNc1cc2c(nn1)CCN(C(=O)c1ccc(NC3CC3)nc1)C2	3.422%
N#Cc1cccc(OCCN2CCCC2C(=O)NCC(F)(F)F)c1 (stereo not given)	4.386%
CC(C)NC(=O)N1CCN(CCn2cccn2)c2ncccc2C1	-2.116%
CC1CCCN(CC(=O)N2CCC(c3ncc4c(n3)CCNC4)CC2)C1 (stereo not given)	6.011%
COc1cc(CO)ccc1OCc1nc(C(C)C)no1	5.682%
COc1ccccc1Oc1ncccc1CNC(=O)C1COC(=O)N1 (stereo not given)	12.44%
CNc1cc(C2CN(C(=O)c3cnn(C)c3)CCO2)nc(C)n1 (stereo not given)	2.326%
Cc1nn(C)c(C)c1NC(=O)CNc1cc(C(F)(F)F)ccc1F	3.571%
Cc1nc(CN(C)C2CCCN(c3cccnn3)C2)nc2ccccc12 (stereo not given)	27.01%
Cc1nc(CO[C@@H]2CN(Cc3ccccn3)[C@@H]3COC[C@@H]32)cs1	-4.386%
Cc1noc(C)c1CN1CCCC1c1c(C)nn(C)c1Cl (stereo not given)	2.89%
CCO[C@H]1CO[C@@]2(CCCN(Cc3nc(C)cs3)C2)C1	1.653%
c1cc(-c2ccc3c(c2)CCC32CCN(c3nncs3)CC2)ccn1	18.42%
CC(C)(C)c1cnc(CN2CCC(CO)CC2)o1	1.667%
NC(=O)c1ccc(NC(=O)c2ccncc2Cl)cn1	8.287%

For reference, 5 entries once more:

With CCNc1cc2c(nn1)CCN(C(=O)c1ccc(NC3CC3)nc1)C2 the screen gave 3.422%.
With COc1ccc(C(=O)N2C[C@@H](CN3CCCCC3)[C@@H](CO)C2)cc1Cl the screen gave 7.821%.
With CC(C)(C)c1cnc(CN2CCC(CO)CC2)o1 the screen gave 1.667%.
With CN1CCN(C(=O)CCC(=O)c2cccs2)Cc2ccccc21 the screen gave 6.145%.
With CCc1cc(CNC(=O)N2CCN(c3nc(C)c(C)s3)CC2)on1 the screen gave 4.933%.